In this assay the test system is P388 leukemia ip, CD2F1 mice, survival T/C. In words: NCI In Vivo Anticancer Drug Screen. Data for tumor model P388 Leukemia (intraperitoneal) in CD2F1 (CDF1) mice. To be noted: T/C endpoint: median survival time, higher T/C = longer survival.
The mark [1] stands for this setting: dose: 100.0 mg/kg/injection, schedule: Q01DX005 (ip), vehicle: saline with Tween-80.
[2] abbreviates: dose: 200.0 mg/kg/injection, schedule: Q01DX005 (ip), vehicle: saline with Tween-80.
The mark [3] stands for this setting: dose: 240.0 mg/kg/injection, schedule: Q01DX005 (ip), vehicle: saline with Tween-80.
Setting [4] is: dose: 50.0 mg/kg/injection, schedule: Q01DX005 (ip), vehicle: saline with Tween-80.

The list does not hold the whole screen: it is rich in T/C values a quarter to a half above the control, in often repeated tests (any T/C) and in doses without a T/C. Further doses and runs are listed elsewhere. T/C is the treated group as % of the vehicle group. Some entries give survivors of the animals treated and no T/C: the source holds a T/C of zero for them, seemingly a mark for toxic or unscored doses. Some survivor counts are full or nearly so, which does not show that the dose was tolerated: the source hardly ever lists a survival T/C far under the control, and the zero likely stands for such cases as well. Survivors were counted at the toxicity check, usually on the fifth day, unless a day is given; later deaths do not show. Schedule codes are those of the source, taken here to give the interval after Q, in days (D) or hours (H), and the number of doses after X. Some doses were run more than once; the values are given in rising order. Additions like (4×) stand for listed records that agree. For survival time, the PubChem record calls one and a half times the control and up active, and a quarter to a half above the control has no call in these data; cut-offs in other NCI protocols can differ.

`CC[C@@]1(O)C[C@H](OC2CC(N)C(O)C(C)O2)c2c(O)c3c(c(O)c2[C@H]1C(=O)OC)C(=O)c1cccc(O)c1C3=O` (stereo not given in full): the T/C reads like this: (dose: 1.5 mg/kg/injection, schedule: Q01DX009 (ip), vehicle: water) 127 % of control; (dose: 3.5 mg/kg/injection, schedule: Q01DX009 (ip), vehicle: water) 130 % of control; (dose: 4.0 mg/kg/injection, schedule: Q01DX009 (ip), vehicle: water) 132 % of control; (dose: 5.3 mg/kg/injection, schedule: Q01DX009 (ip), vehicle: water) 139 % of control; (dose: 6.25 mg/kg/injection, schedule: Q01DX001 (ip), vehicle: water) 130 % of control; (dose: 8.0 mg/kg/injection, schedule: Q01DX009 (ip), vehicle: water) 135 and 145 % of control. Also, the T/C reads like this: (dose: 12.0 mg/kg/injection, schedule: Q01DX009 (ip), vehicle: water) 141 % of control; (dose: 12.5 mg/kg/injection, schedule: Q01DX001 (ip), vehicle: water) 137 % of control; (dose: 25.0 mg/kg/injection, schedule: Q01DX001 (ip), vehicle: water) 125 % of control. In addition, the survivor count is, setting by setting: (dose: 24.0 mg/kg/injection, schedule: Q01DX009 (ip), vehicle: water) 4 of 6; (dose: 32.0 mg/kg/injection, schedule: Q01DX009 (ip), vehicle: water) 4 of 6; (dose: 50.0 mg/kg/injection, schedule: Q01DX001 (ip), vehicle: water) 1 of 6 and 4 of 6; (dose: 100.0 mg/kg/injection, schedule: Q01DX001 (ip), vehicle: water) 0 of 6 (2×); (dose: 200.0 mg/kg/injection, schedule: Q01DX001 (ip), vehicle: water) 0 of 6; (dose: 400.0 mg/kg/injection, schedule: Q01DX001 (ip), vehicle: water) 0 of 6.
Consider `CC(=O)OC1CC(O)C23COC(O)C1(C)C2CC(O)C1(C)C3C(=O)C(O)C2(C)C(c3ccoc3)CC3OC321` (stereo not given), for which the survivor count is 0 of 6 (dose: 5.0 mg/kg/injection, schedule: Q01DX009 (ip), vehicle: Klucel (hydroxypropylcellulose) (HPC)); 0 of 6 (dose: 10.0 mg/kg/injection, schedule: Q01DX009 (ip), vehicle: Klucel (hydroxypropylcellulose) (HPC)); 0 of 6 (dose: 20.0 mg/kg/injection, schedule: Q01DX009 (ip), vehicle: Klucel (hydroxypropylcellulose) (HPC)).
As to `CCN(CC)CCCC(Nc1c2ccc(Cl)cc2nc2ccc(OC)cc12)c1ccc(F)cc1` (stereo not given), the survivor count under setting [1] is given as 3 of 5 and the survivor count under setting [2] was 0 of 5.
With `COc1ccc(O)c(CN2CCN(Cc3cc(OC)ccc3O)CC2)c1`, the survivor count is given as 6 of 6 (dose: 60.0 mg/kg/injection, schedule: Q01DX005 (ip), vehicle: saline with Tween-80); 6 of 6 (dose: 120.0 mg/kg/injection, schedule: Q01DX005 (ip), vehicle: saline with Tween-80); 6 of 6 under setting [3].
`CCC(=O)N(C)C(C)C(=O)OC1CC(=O)N(C)c2cc(cc(OC)c2Cl)CC(CO)=C/C=C/C(OC)C2(O)CC(OC(=O)N2)C(C)C2OC12C` (stereo not given): the T/C is, setting by setting: (dose: 25.0 micrograms/kg/injection, schedule: Q01DX009 (ip), vehicle: saline + alcohol) 147 % of control; (dose: 50.0 micrograms/kg/injection, schedule: Q01DX009 (ip), vehicle: saline + alcohol) 149 % of control; (dose: 100.0 micrograms/kg/injection, schedule: Q01DX009 (ip), vehicle: saline + alcohol) 136 % of control; (dose: 200.0 micrograms/kg/injection, schedule: Q01DX009 (ip), vehicle: saline + alcohol) 130 and 145 % of control.
For `[NH-]C(CCC(N)=O)C(=O)O.[NH-]C(CCC(N)=O)C(=O)O.[Ni+2]` (stereo not given), the survivor count (dose: 25.0 mg/kg/injection, schedule: Q01DX005 (ip), vehicle: saline) is 6 of 6.
With `O=C(c1ccc(C(=O)N2CC2)cc1)N1CC1`, the survivor count (dose: 40.0 mg/kg/injection, schedule: Q04DX003 (ip), vehicle: saline with Tween-80) is 4 of 6.
On to `O=C(Nc1ccccc1)OC(CN1CCCCC1)C(CN1CCCCC1)OC(=O)Nc1ccccc1` (stereo not given), for which the survivor count is 5 of 5 and 6 of 6 (dose: 50.0 mg/kg/injection, schedule: Q01DX005 (ip), vehicle: Klucel (hydroxypropylcellulose) (HPC)); 5 of 5 (dose: 100.0 mg/kg/injection, schedule: Q01DX005 (ip), vehicle: Klucel (hydroxypropylcellulose) (HPC)).
For `COc1ccc(N2C(=O)C(=O)C(C(C)=O)C2=O)cc1` (stereo not given), the survivor count (dose: 400.0 mg/kg/injection, schedule: Q04DX002 (ip), vehicle: saline with Tween-80) is 3 of 6.
With `O=C1c2cccc3cc([N+](=O)[O-])cc(c23)C(=O)N1Cc1cccnc1`, the survivor count under setting [4] is recorded as 6 of 6.
Take `N#C/C(=C/c1ccco1)c1ccccc1`: the survivor count (dose: 50.0 mg/kg/injection, schedule: Q01DX009 (ip), vehicle: Klucel (hydroxypropylcellulose) (HPC)) was 1 of 6 and 6 of 6; the survivor count (dose: 100.0 mg/kg/injection, schedule: Q01DX009 (ip), vehicle: Klucel (hydroxypropylcellulose) (HPC)) was 1 of 6; the survivor count (dose: 200.0 mg/kg/injection, schedule: Q01DX009 (ip), vehicle: Klucel (hydroxypropylcellulose) (HPC)) was 0 of 6.
Regarding `COc1cccc2c1C(=O)c1c(O)c3c(c(O)c1C2=O)C[C@@](O)(C(C)=O)C[C@@H]3OC1CC([N+]([O-])(Cc2ccccc2)Cc2ccccc2)C(O)C(C)O1` (stereo not given in full), for the setting “dose: 12.5 mg/kg/injection, schedule: Q04DX003 (ip), vehicle: distilled water + Tween-80”, the T/C was 136 % of control.
For `COc1cc(OC)c(C(c2cc3c(cc2O)OCO3)N2CCOCC2)c(OC)c1` (stereo not given), under setting [3], the survivor count was 6 of 6.
Turning to `COc1cc(O)c(C(C)c2ccccc2)cc1N=NC(N)=O` (stereo not given), the survivor count runs as follows: under setting [4], 6 of 6; under setting [1], 6 of 6; under setting [2], 6 of 6.
Regarding `O=C(Nc1ccccc1)/C(N=Nc1ccc([N+](=O)[O-])cc1Cl)=N/Nc1ccc([N+](=O)[O-])cc1Cl`, the survivor count (dose: 200.0 mg/kg/injection, schedule: Q01DX005 (ip), vehicle: Klucel (hydroxypropylcellulose) (HPC)) was 6 of 6.
On to `C[CH2][Sn]([CH2]C)([CH2]CC(=O)OC)[CH2]CC(=O)OC`, for which the T/C runs as follows: (dose: 50.0 mg/kg/injection, schedule: Q01DX005 (ip), vehicle: saline) 126 and 130 % of control; (dose: 100.0 mg/kg/injection, schedule: Q01DX005 (ip), vehicle: saline) 141 % of control. The survivor count (dose: 200.0 mg/kg/injection, schedule: Q01DX005 (ip), vehicle: saline) is 1 of 6.

The record behind these values is PubChem BioAssay AID330 (DTP/NCI, 2004).
